The other results are listed elsewhere or left out.
How the values were obtained:
Test in all cases: glycan array binding signal (z-score within array); higher = stronger binding
Conditions in all cases: glycan notation: IUPAC condensed, linker removed; mutation: R276L
Gal(a1-3)Gal = target: Gal(a1-3)Gal
Method in brief: (§1)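 Negative Z-scores can be read as non-binding. The Z-score is calculated within each array and then averaged across arrays of one protein sequence at different concentrations or buffers and across linkers. Arrays, 3228 in all, were curated from the Consortium for Functional Glycomics database and kept only where the protein sequence was available.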

Gal(a1-3)Gal(b1-3)GlcNAc = target: Gal(a1-3)Gal(b1-3)GlcNAc
Method in brief: as §1

[1] = target: Gal(a1-3)Gal(b1-3)GlcNAc(b1-2)Man
Method in brief: as §1

[2] = target: Gal(a1-3)Gal(b1-3)GlcNAc(b1-2)Man(a1-3)[Gal(a1-3)Gal(b1-3)GlcNAc(b1-2)Man(a1-6)]Man(b1-4)GlcNAc(b1-4)GlcNAc
Method in brief: as §1

[3] = target: Gal(a1-3)Gal(b1-3)GlcNAc(b1-3)GalNAc
Method in brief: as §1

[4] = target: Gal(a1-3)Gal(b1-3)GlcNAc(b1-6)GalNAc
Method in brief: as §1

[5] = target: Gal(a1-3)Gal(b1-3)[Fuc(a1-4)]GlcNAc(b1-2)Man(a1-3)[Gal(a1-3)Gal(b1-3)[Fuc(a1-4)]GlcNAc(b1-2)Man(a1-6)]Man(b1-4)GlcNAc(b1-4)GlcNAc
Method in brief: as §1

Gal(a1-3)Gal(b1-4)Glc = target: Gal(a1-3)Gal(b1-4)Glc
Method in brief: as §1

Gal(a1-3)Gal(b1-4)GlcNAc = target: Gal(a1-3)Gal(b1-4)GlcNAc
Method in brief: as §1

[6] = target: Gal(a1-3)Gal(b1-4)GlcNAc(b1-2)Man
Method in brief: as §1

[7] = target: Gal(a1-3)Gal(b1-4)GlcNAc(b1-2)Man(a1-3)[Gal(a1-3)Gal(b1-4)GlcNAc(b1-2)Man(a1-6)]Man(b1-4)GlcNAc(b1-4)GlcNAc
Method in brief: as §1

[8] = target: Gal(a1-3)Gal(b1-4)GlcNAc(b1-3)GalNAc
Method in brief: as §1

[9] = target: Gal(a1-3)Gal(b1-4)GlcNAc(b1-6)GalNAc
Method in brief: as §1

[10] = target: Gal(a1-3)Gal(b1-4)[Fuc(a1-3)]GlcNAc
Method in brief: as §1

[11] = target: Gal(a1-3)Gal(b1-4)[Fuc(a1-3)]GlcNAc(b1-2)Man(a1-3)[Gal(a1-3)Gal(b1-4)[Fuc(a1-3)]GlcNAc(b1-2)Man(a1-6)]Man(b1-4)GlcNAc(b1-4)GlcNAc
Method in brief: as §1

Gal(a1-3)GalNAc = target: Gal(a1-3)GalNAc
Method in brief: as §1

[12] = target: Gal(a1-3)[Gal(a1-4)]Gal(b1-4)GlcNAc
Method in brief: as §1

[13] = target: Gal(a1-4)Gal(b1-3)GlcNAc(b1-2)Man(a1-3)[Gal(a1-4)Gal(b1-3)GlcNAc(b1-2)Man(a1-6)]Man(b1-4)GlcNAc(b1-4)GlcNAc
Method in brief: as §1

Gal(a1-4)Gal(b1-4)Glc = target: Gal(a1-4)Gal(b1-4)Glc
Method in brief: as §1

Gal(a1-4)Gal(b1-4)GlcNAc = target: Gal(a1-4)Gal(b1-4)GlcNAc
Method in brief: as §1

[14] = target: Gal(a1-4)Gal(b1-4)GlcNAc(b1-2)Man(a1-3)[Gal(a1-4)Gal(b1-4)GlcNAc(b1-2)Man(a1-6)]Man(b1-4)GlcNAc(b1-4)GlcNAc
Method in brief: as §1

[15] = target: Gal(a1-4)Gal(b1-4)GlcNAc(b1-3)Gal(b1-4)Glc
Method in brief: as §1

Gal(a1-4)GlcNAc = target: Gal(a1-4)GlcNAc
Method in brief: as §1

Gal(a1-6)Glc = target: Gal(a1-6)Glc
Method in brief: as §1

Gal(b1-2)Gal = target: Gal(b1-2)Gal
Method in brief: as §1

Gal(b1-3)Gal = target: Gal(b1-3)Gal
Method in brief: as §1

Gal(b1-3)Gal(b1-4)GlcNAc = target: Gal(b1-3)Gal(b1-4)GlcNAc
Method in brief: as §1

Gal(b1-3)GalNAc = target: Gal(b1-3)GalNAc
Method in brief: as §1

[16] = target: Gal(b1-3)GalNAc(a1-3)[Fuc(a1-2)]Gal(b1-4)Glc
Method in brief: as §1

[17] = target: Gal(b1-3)GalNAc(a1-3)[Fuc(a1-2)]Gal(b1-4)GlcNAc
Method in brief: as §1

Gal(b1-3)GalNAc(b1-3)Gal = target: Gal(b1-3)GalNAc(b1-3)Gal
Method in brief: as §1

[18] = target: Gal(b1-3)GalNAc(b1-3)Gal(a1-4)Gal(b1-4)Glc
Method in brief: as §1

[19] = target: Gal(b1-3)GalNAc(b1-4)Gal(b1-4)Glc
Method in brief: as §1

[20] = target: Gal(b1-3)GalNAc(b1-4)[Neu5Ac(a2-3)]Gal(b1-4)Glc
Method in brief: as §1

Gal(b1-3)GlcNAc = target: Gal(b1-3)GlcNAc
Method in brief: as §1

[21] = target: Gal(b1-3)GlcNAc(a1-3)Gal(b1-4)GlcNAc
Method in brief: as §1

[22] = target: Gal(b1-3)GlcNAc(a1-6)Gal(b1-4)GlcNAc
Method in brief: as §1

Gal(b1-3)GlcNAc(b1-2)Man = target: Gal(b1-3)GlcNAc(b1-2)Man
Method in brief: as §1

B1: SUN4P (Saccharomyces cerevisiae), P53616 (protein)
chain: MGSSHHHHHHSSGLVPRGSHNGSIYGDLADFSGPYEKFEDGTIPCGQFPSGQGVIPISWLDEGGWSGVENTDTSTGGSCKEGSYCSYACQPGMSKTQWPSDQPSDGRSIGGLLCKDGYLYRSNTDTDYLCEWGVDAAYVVSELSNDVAICLTDYPGTENMVIPTYVQAGDSLPLTVVDQDTYYTWQGLKTSAQYYVNNAGISVEDACVWGSSSSGVGNWAPLNFGAGSSDGVAYLSLIPNPNNGNALNFNVKIVAADDSSTVNGECIYENGSFSGGSDGCTVSVTAGKAKFVLYN
Gal(a1-3)Gal
  glycan array binding signal (z-score): -0.653
Gal(a1-3)Gal(b1-3)GlcNAc
  glycan array binding signal (z-score): -0.743
[1]
  glycan array binding signal (z-score): -0.15
[2]
  glycan array binding signal (z-score): 0.555
[3]
  glycan array binding signal (z-score): 1.05
[4]
  glycan array binding signal (z-score): -0.585
[5]
  glycan array binding signal (z-score): -0.029
Gal(a1-3)Gal(b1-4)Glc
  glycan array binding signal (z-score): -0.295
Gal(a1-3)Gal(b1-4)GlcNAc
  glycan array binding signal (z-score): -0.685
[6]
  glycan array binding signal (z-score): -0.347
[7]
  glycan array binding signal (z-score): 0.172
[8]
  glycan array binding signal (z-score): -0.405
[9]
  glycan array binding signal (z-score): -0.073
[10]
  glycan array binding signal (z-score): 0.297
[11]
  glycan array binding signal (z-score): 0.871
Gal(a1-3)GalNAc
  glycan array binding signal (z-score): 0.528
[12]
  glycan array binding signal (z-score): -0.711
[13]
  glycan array binding signal (z-score): 0.183
Gal(a1-4)Gal(b1-4)Glc
  glycan array binding signal (z-score): -0.891
Gal(a1-4)Gal(b1-4)GlcNAc
  glycan array binding signal (z-score): -0.161
[14]
  glycan array binding signal (z-score): 1.37
[15]
  glycan array binding signal (z-score): -0.942
Gal(a1-4)GlcNAc
  glycan array binding signal (z-score): -0.2
Gal(a1-6)Glc
  glycan array binding signal (z-score): 0.903
Gal(b1-2)Gal
  glycan array binding signal (z-score): 0.046
Gal(b1-3)Gal
  glycan array binding signal (z-score): 1.8
Gal(b1-3)Gal(b1-4)GlcNAc
  glycan array binding signal (z-score): 0.813
Gal(b1-3)GalNAc
  glycan array binding signal (z-score): 2.6
[16]
  glycan array binding signal (z-score): 0.654
[17]
  glycan array binding signal (z-score): 0.139
Gal(b1-3)GalNAc(b1-3)Gal
  glycan array binding signal (z-score): 7.07
[18]
  glycan array binding signal (z-score): 1.21
[19]
  glycan array binding signal (z-score): 11.2
[20]
  glycan array binding signal (z-score): 0.232
Gal(b1-3)GlcNAc
  glycan array binding signal (z-score): -0.318
[21]
  glycan array binding signal (z-score): 0.277
[22]
  glycan array binding signal (z-score): -0.043
Gal(b1-3)GlcNAc(b1-2)Man
  glycan array binding signal (z-score): -0.342
